The test in a line: qHTS Assay for Lipid Storage Modulators in Drosophila S3 Cells.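 As to cell number change: cells counted by Cell Tracker Red CMTPX staining in the red channel.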 As to conditions: BODIPY lipid droplet fluorescence, 18-24 h; for cell number change: measured here: cell count max response, cells fed with added oleic acid. A digest of the protocol: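 Drosophila S3 cells got compounds at several concentrations plus oleic acid (400 uM solution). Laser-scanning cytometry with 488 nm excitation read lipid droplets at 500-530 nm and cells at 575-640 nm. Percent activity was relative to 20 uM Triacsin C.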

The mark [1] stands for this setting: measured here: lipid fluorescence (Fed channel) AC50, cells fed with added oleic acid.
The mark [2] stands for this setting: measured here: cell number channel AC50, cells fed with added oleic acid.

Some of the results follow. These are further read-outs of the screen, such as a control signal, another cell line or another target. No call is given for them. The list favours compounds with an active or inconclusive main result. The note in brackets gives the kind of curve behind each potency; many fits are weak.

As for `O=C1C(Cl)=C(NCCCO)C(=O)c2ccccc21`, the cell number change is -8.48%.

Consider `CC(OC(=O)c1ccccc1NCCO)C(=O)Nc1ccnn1C(C)C` (configuration not stated), for which the cell number change was -1.17%. Besides, the AC50 under setting [1] is 0.0116 µM [falling, full curve, poor fit].

As to `Cc1cccc(C)c1NC(=S)N(CCN(C)C)C(C)c1cccnc1` (configuration not stated), the cell number change worked out at 18.9%. The AC50 under setting [2] is 0.651 µM [rising, full curve, poor fit]. The AC50 under setting [1] was 0.116 µM [rising, full curve, poor fit]. As to `O=C(Nc1ccc(C(=O)O)cc1)/C(=C\c1ccc2c(c1)OCO2)NC(=O)c1ccco1`, the cell number change was -7.05%. Under setting [2], the AC50 is 0.206 µM [falling, full curve, poor fit]. Turning to `COc1ccc(F)cc1C(=O)C1CCCN(C(=O)C2=C(C)OCCO2)C1` (configuration not stated), the cell number change is -32.3%. Besides, the AC50 under setting [2] is 29.1 µM [falling, single point]. In addition, under setting [1], the AC50 is 32.6 µM [falling, single point]. As for `Cc1ccc(CC2C(=O)N(c3nc(C)cc(C)n3)C(=O)C2C)cc1` (configuration not stated), the cell number change amounted to 43.1%.

Consider `CCn1c(=O)c2cc(S(=O)(=O)NCCOc3ccccc3)ccc2n(CC)c1=O`, for which, under setting [2], the AC50 is 6.51 µM [rising, single point]. With `Cc1cc(C)cc(N(C(=O)c2ccco2)C(C(=O)NC2CCCC2)c2ccncc2)c1` (configuration not stated), the AC50 under setting [1] was 6.51 µM [rising, single point]. Consider `O=C(CCNc1n[nH]c(=O)[nH]c1=O)N/N=C/c1ccccc1Br`, for which the cell number change was determined as 3.01%. The AC50 under setting [1] was 0.731 µM [rising, single point].

Turning to `Cc1cc(NC(=O)CCC(=O)N(c2ccccc2)C(C(=O)NC2CCCC2)c2ccc(F)cc2)no1` (configuration not stated), the cell number change is 23.9%. The AC50 under setting [1] is 6.51 µM [falling, single point].

Consider `O=C(O)/C=C/c1ccc(S(=O)(=O)Nc2cccnc2)cc1`, for which the cell number change came out at 14.5%. In addition, under setting [1], the AC50 was 0.13 µM [rising, full curve, poor fit]. Turning to `CCOC(=O)C1CCCN(C(=O)C(C)Oc2ccc(Cl)cc2Cl)C1` (configuration not stated), the cell number change stood at 16.1%. Besides, under setting [2], the AC50 was 3.26 µM [rising, single point]. The AC50 under setting [1] was 6.51 µM [rising, single point]. Take `CCCn1nnnc1SCC(=O)NCc1ccccc1`: the cell number change came to 0.442%. Moreover, the AC50 under setting [1] is 4.61 µM [falling, partial curve, poor fit]. For `CCn1c(SCc2nc3ccccc3[nH]2)nnc1-c1ccccc1OC`, the cell number change was -4.42%. The AC50 under setting [1] is 3.26 µM [rising, full curve, poor fit].

Take `CCN(CC)S(=O)(=O)c1ccc(S(=O)(=O)N2CCCC2C(=O)O)cc1` (configuration not stated): the cell number change amounted to 25.7%. Take `CC(=O)c1c(C)[nH]c(C(=O)COC(=O)c2ccc(Cl)nc2)c1C`: the cell number change was -17.6%. Also, the AC50 under setting [1] was 0.651 µM [falling, partial curve, poor fit]. Take `C/C(=N/N=C(/C)c1cccs1)c1cccs1`: the cell number change was determined as 26.4%. Under setting [1], the AC50 was 14.6 µM [rising, partial curve].

(Values after PubChem BioAssay AID2685 (National Center for Advancing Translational Sciences (NCATS), 2010).)
